These are yes or no findings as the source states them, for the method shown. Binding seen in cells or lysates may run through a third protein. A yes stands for co-enrichment or nearness to the bait. Other partners may have been found.
Target: KGA overexpressed in HepG2 cells (human) (UniProt O94925)
Experiment: affinity purification with mass spectrometry; immunoprecipitate from lysate of HepG2 cells overexpressing KGA; SDS-PAGE, silver staining, target lane excised, LC-MS/MS

The chains behind the UniProt entries cited, without tags or fusion partners. Residues count along the entry.
UniProt O94925, residues 55-669: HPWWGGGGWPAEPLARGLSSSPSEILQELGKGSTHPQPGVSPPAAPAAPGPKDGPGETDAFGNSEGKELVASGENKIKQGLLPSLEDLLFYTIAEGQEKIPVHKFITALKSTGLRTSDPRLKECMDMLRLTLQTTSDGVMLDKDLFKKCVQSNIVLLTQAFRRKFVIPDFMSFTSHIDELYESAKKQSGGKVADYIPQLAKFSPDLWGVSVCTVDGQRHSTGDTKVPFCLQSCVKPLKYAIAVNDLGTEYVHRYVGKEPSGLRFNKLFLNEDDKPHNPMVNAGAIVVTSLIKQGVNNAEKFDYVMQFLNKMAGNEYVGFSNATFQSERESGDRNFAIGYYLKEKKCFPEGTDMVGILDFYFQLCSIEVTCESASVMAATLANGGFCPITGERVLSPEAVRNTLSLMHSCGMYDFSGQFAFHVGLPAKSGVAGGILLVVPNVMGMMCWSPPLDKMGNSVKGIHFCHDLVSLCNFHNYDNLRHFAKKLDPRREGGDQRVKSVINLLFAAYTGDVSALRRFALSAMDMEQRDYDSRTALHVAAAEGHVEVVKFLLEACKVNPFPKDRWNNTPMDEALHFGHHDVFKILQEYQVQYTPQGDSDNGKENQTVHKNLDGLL

binding: binds
B1: OGT, endogenous (enzyme, UniProt O15294 1-1046)
chain: MASSVGNVADSTEPTKRMLSFQGLAELAHREYQAGDFEAAERHCMQLWRQEPDNTGVLLLLSSIHFQCRRLDRSAHFSTLAIKQNPLLAEAYSNLGNVYKERGQLQEAIEHYRHALRLKPDFIDGYINLAAALVAAGDMEGAVQAYVSALQYNPDLYCVRSDLGNLLKALGRLEEAKACYLKAIETQPNFAVAWSNLGCVFNAQGEIWLAIHHFEKAVTLDPNFLDAYINLGNVLKEARIFDRAVAAYLRALSLSPNHAVVHGNLACVYYEQGLIDLAIDTYRRAIELQPHFPDAYCNLANALKEKGSVAEAEDCYNTALRLCPTHADSLNNLANIKREQGNIEEAVRLYRKALEVFPEFAAAHSNLASVLQQQGKLQEALMHYKEAIRISPTFADAYSNMGNTLKEMQDVQGALQCYTRAIQINPAFADAHSNLASIHKDSGNIPEAIASYRTALKLKPDFPDAYCNLAHCLQIVCDWTDYDERMKKLVSIVADQLEKNRLPSVHPHHSMLYPLSHGFRKAIAERHGNLCLDKINVLHKPPYEHPKDLKLSDGRLRVGYVSSDFGNHPTSHLMQSIPGMHNPDKFEVFCYALSPDDGTNFRVKVMAEANHFIDLSQIPCNGKAADRIHQDGIHILVNMNGYTKGARNELFALRPAPIQAMWLGYPGTSGALFMDYIITDQETSPAEVAEQYSEKLAYMPHTFFIGDHANMFPHLKKKAVIDFKSNGHIYDNRIVLNGIDLKAFLDSLPDVKIVKMKCPDGGDNADSSNTALNMPVIPMNTIAEAVIEMINRGQIQITINGFSISNGLATTQINNKAATGEEVPRTIIVTTRSQYGLPEDAIVYCNFNQLYKIDPSTLQMWANILKRVPNSVLWLLRFPAVGEPNIQQYAQNMGLPQNRIIFSPVAPKEEHVRRGQLADVCLDTPLCNGHTTGMDVLWAGTPMVTMPGETLASRVAASQLTCLGCLELIAKNRQEYEDIAVKLGTDLEYLKKVRGKVWKQRISSPLFNTKQYTMELERLYLQMWEHYAAGNKPDHMIKPVEVTESA
